# Laboratory results reported in PubChem BioAssay AID504467 (National Center for Advancing Translational Sciences (NCATS), 2011).
# The whole screen tested about 330,000 compounds, of which about 7,700 (2.3%) were called active. The shares of active, inactive and inconclusive entries below differ from those in the screen. Calls follow the shape of the dose curve; as a rule, active = well fitted inhibition curve with a large enough effect; inconclusive = small, poorly fitted or top-dose-only effect, or effect the other way; inactive = flat fitted curve, though single readings scatter. Where the call is inconclusive, the potency comes from a doubtful curve fit.
# Experiment: qHTS screen for small molecules that inhibit ELG1-dependent DNA repair in human embryonic kidney (HEK293T) cells expressing luciferase-tagged ELG1; also: nearly all actives have a fitted effect of over 55% in size
# Conditions: HEK293T ELG1-luciferase reporter, luminescence, 16 h, DNA damage induced by 5-fluorouridine; series mostly up to 46.1 µM
# Outline: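 Step one: seed 2,000 cells per well. Step two: pin-transfer compound or DMSO alongside 5-fluorouridine. Step three: incubate 16 hr, 37 °C, 5% CO2. Step four: add ONE-Glo, wait 30 min, read luminescence.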
# Potency is read from the fitted curve at half-maximal effect.
row,Structure (SMILES),Potency
1,O=C(Nc1ccc(NC(=O)c2ccccc2Br)cc1)c1ccccc1,"inconclusive: 16.4 µM [activator, single point]"
2,Cc1ccc(-n2nccc2-c2nn(-c3cccc(C(F)(F)F)c3)c(=O)n(C)c2=O)cc1,inactive
3,OCCN(/C=N/c1nc(-c2ccc(Br)cc2)cs1)CCO,"inconclusive: 14.6 µM [activator, partial curve]"
4,O=C(NC(=S)Nc1ccc(N2CCOCC2)c(Cl)c1)C(c1ccccc1)c1ccccc1,inactive
5,CC1CN(S(=O)(=O)c2cccc(C(=O)NCc3ccc4c(c3)OCO4)c2)CC(C)O1 (stereo unspecified),"inconclusive: 25.9 µM [inhibitor, partial curve]"
6,O=C(O)c1ccc(Cl)c(N2C(=O)Nc3ccccc3N2O)c1,"inconclusive: 29.1 µM [inhibitor, single point]"
7,O=C(NNC(=O)c1cnccn1)c1ccc(Cl)cc1,"inconclusive: 8.2 µM [inhibitor, partial curve]"
8,CC(C)c1ccc(C(=O)NCCCN2CCOCC2)cc1,"inconclusive: 23.1 µM [activator, partial curve]"
9,COc1ccc(/C=C/C(=O)Nc2c(C)nn(C)c2C)cc1COc1ccc(Br)cc1,"inconclusive: 7.31 µM [inhibitor, partial curve, poor fit]"
10,CCOc1ccc(C(=O)Nc2ccccc2C(=O)O)cc1,"inconclusive: 5.17 µM [activator, full curve]"
11,NNC(=O)c1cccc(COc2ccc3c(c2)CCC3)c1,"inconclusive: 0.411 µM [activator, full curve, poor fit]"
12,Cc1cc(N2O[C@]34C=C[C@]25C[C@@H](O)CC[C@]5(C)C3CC[C@]2(C)[C@@H]([C@H](C)/C=C/[C@H](C)C(C)C)CC[C@H]24)no1 (stereo partly specified),"inconclusive: 14.6 µM [activator, partial curve, poor fit]"
13,Cc1nnc2sc(SCC(=O)Nc3nccs3)nn2c1=O,"inconclusive: 18.4 µM [activator, single point]"
14,COc1cc(C(=S)N2CCCC2)cc(Cl)c1OCC(=O)Nc1ccc(C)cc1C,"inconclusive: 29.1 µM [inhibitor, single point]"
15,CCOc1ccc(CC(=O)N2CCN=C2SCc2ccc([N+](=O)[O-])cc2)cc1,inactive
16,CSc1nsc(SCC(=O)Nc2nc3ccc(C)cc3s2)n1,"inconclusive: 20.6 µM [activator, single point]"
17,COc1ccc(CNC(=O)c2ccccc2NC(=O)C2=CSCCO2)c(OC)c1,"inconclusive: 14.6 µM [inhibitor, partial curve]"
18,COc1ccc([N+](=O)[O-])cc1NC(=S)NC(NC(=O)Cc1ccc(OC)c(OC)c1)C(Cl)(Cl)Cl (stereo unspecified),"inconclusive: 25.9 µM [inhibitor, single point]"
19,Cn1nc(-c2ccc(Cl)cc2)c2cc(C(=O)NCCN3CCOCC3)sc21,"inconclusive: 14.6 µM [inhibitor, partial curve]"
20,Cc1occc1C(=O)NNC(=O)c1ccccc1C(=O)O,"inconclusive: 5.8 µM [activator, partial curve]"
21,Cc1noc(C)c1CCC(=O)N1CCCC(CO)(Cc2ccccc2)C1 (stereo unspecified),"inconclusive: 20.6 µM [activator, partial curve]"
22,O=C(Nc1ccc(Br)cn1)c1cccc(C(=O)Nc2ccc(Br)cn2)c1,"inconclusive: 6.51 µM [activator, partial curve]"

row,Structure (SMILES),Potency
1,CCOc1cccc(NC(=O)CSc2nc(C)c3c(c2C#N)CCCC3)c1,"inconclusive: 16.4 µM [inhibitor, partial curve, poor fit]"
2,Cc1c(C(=O)Nc2ccc3c(c2)OCO3)oc2ccccc12,"inconclusive: 6.51 µM [activator, partial curve]"
3,Cc1cc2cc(C=C(C#N)C#N)c(Cl)nc2cc1C,"inconclusive: 29.1 µM [inhibitor, single point]"
4,OCc1c(OCc2cccc(F)c2)ccc2ccccc12,"inconclusive: 15.8 µM [activator, single point]"
5,CCCN(CCC)c1nc(N(CCC)CCC)[nH]c(=O)n1,"inconclusive: 4.11 µM [inhibitor, full curve, poor fit]"
6,COc1cc(/C=N/NC(=S)NCc2ccco2)cc(OC)c1OC,inactive
7,CCCCn1nnc(NC(=O)C(c2ccccc2)c2ccccc2)n1,inactive
8,Cn1nc(CC(=O)NC2CCCCC2)c2ccccc2c1=O,"inconclusive: 0.517 µM [inhibitor, partial curve, poor fit]"
9,C/C(=N\NC(=O)c1ccc(CSc2nncn2C)cc1)c1cccs1,"inconclusive: 18.3 µM [activator, partial curve]"
10,CN(Cc1ccccc1)C(=O)c1ccc(NC(=O)Cc2cccc(NC(=O)C3CCCN(C(=O)C4CCCCC4)C3)c2)cc1 (stereo unspecified),active: 14.6 µM
11,Cc1ccc(S(=O)(=O)Nc2cc(=O)[nH]c(SCc3ccc(Cl)cc3)n2)cc1,"inconclusive: 18.4 µM [activator, single point]"
12,O=C(c1ccccc1)C1C(c2ccccc2)C1[N+](=O)[O-] (stereo unspecified),inactive
13,CC(=O)c1ccc(N2CCCC2)c(F)c1,"inconclusive: 20.6 µM [activator, partial curve]"
14,CCOC(=O)C1CCN(C(=O)COC(=O)Cc2ccc(Cl)cc2)CC1,inactive
15,Cc1cc([N+](=O)[O-])nn1CC(=O)N/N=C/c1ccccc1F,inactive
16,Cc1cc(C(=O)N/N=C/c2ccccc2[N+](=O)[O-])c(C)o1,"inconclusive: 16.4 µM [activator, partial curve]"
17,O=C(O)CCCNC(=O)/C=C/c1ccco1,inactive
18,Cc1[nH]c(C)c(S(=O)(=O)N2CCCCC2C)c1C(=O)N1CCCC1 (stereo unspecified),inactive
19,CC(C)CNC(=O)c1cc(-c2ccc3c(c2)OCO3)on1,"inconclusive: 4.61 µM [activator, partial curve]"
20,COCCCNC(=O)C[C@H]1C[C@H](C(=O)N2CCOCC2)[C@@]2(CCC3CCCC3)c3[nH]c4cc(-c5ccco5)ccc4c3CCN2C1=O,"inconclusive: 20.6 µM [inhibitor, single point]"
21,Cc1cc(C)cc(NC(=O)C2CCN(C(=O)[C@@H]3Cc4ccccc4CN3)CC2)c1,"inconclusive: 29.1 µM [activator, partial curve, poor fit]"
22,CCOc1ccc(NC(=O)Nc2ccc3nccnc3c2)cc1,"inconclusive: 17.8 µM [inhibitor, single point]"

row,Structure (SMILES),Potency
1,Cc1ccc2c(c1)CCCN2C(=O)Nc1ccc2c(c1)OCO2,"inconclusive: 25.9 µM [activator, partial curve, poor fit]"
2,O=C(O)/C=C/C(=O)N1CCN(S(=O)(=O)c2cc(C(F)(F)F)ccc2Cl)CC1,inactive
3,COc1ccc2c(c1OC)C(=O)OC2Nc1nc(-c2ccc(-c3ccccc3)cc2)cs1 (stereo unspecified),"inconclusive: 4.61 µM [activator, partial curve]"
4,Cc1cc2oc3c(c(=O)c2cc1C)C(c1ccc(C(C)C)cc1)N(CCCN1CCOCC1)C3=O (stereo unspecified),"inconclusive: 16.4 µM [inhibitor, single point]"
5,CCOC(=O)C(CC)/C(C)=N\NC(=O)c1ccccc1O (stereo unspecified),inactive
6,Cc1ccc(-c2n[nH]c(Cc3ccccc3)n2)cc1,"inconclusive: 11.6 µM [activator, partial curve]"
7,COc1ccc(/C=N/NC(=O)C2C3CCCCC32)cc1OC (stereo unspecified),inactive
8,C=CCn1c(CCCNC(=O)C(C)(C)C)nc2ccccc21,inactive
9,CC1=CC(C)(C)Nc2ccc(OC(=O)c3ccco3)cc21,"inconclusive: 29.1 µM [activator, partial curve, poor fit]"
10,Cc1cc(C)c(S(=O)(=O)/N=C2/C=C(Sc3ncn[nH]3)C(=O)c3ccccc32)cc1C,active: 20.6 µM
11,COC(=O)CNC(c1ccccc1)c1cc(Cl)ccc1NC(=O)c1cccc(Cl)c1 (stereo unspecified),"inconclusive: 29.1 µM [inhibitor, partial curve, poor fit]"
12,CCOC(=O)C1CCN(C(=O)CSc2nc(N)cc(=O)[nH]2)CC1,"inconclusive: 18.3 µM [activator, partial curve, poor fit]"
13,O=C(CCS(=O)(=O)Cc1ccccc1)Nc1nc2c(s1)CCCC2,"inconclusive: 32.6 µM [activator, partial curve, poor fit]"
14,CC(=O)Nc1ccc(NC(=O)C(C)OC(=O)C2(c3ccc(F)cc3)CCCC2)cc1 (stereo unspecified),"inconclusive: 8.2 µM [inhibitor, partial curve]"
15,Cc1cccc(-c2nnnn2-c2cccc(C)c2)c1,"inconclusive: 32.6 µM [inhibitor, single point]"
16,COc1cccc(C(=O)Nc2ccc(NC(C)=O)cn2)c1,"inconclusive: 13 µM [activator, partial curve]"
17,CCOC(=O)C1(Cc2cccc(OC)c2)CCN(Cc2cccnc2)CC1,"inconclusive: 14.6 µM [activator, partial curve]"
18,Cc1cccc(NC(=O)/C=C/c2ccc(Cl)cc2)n1,"inconclusive: 2.59 µM [activator, partial curve]"
19,O=C(NCCC(=O)N1CCC2(CC1)NCCc1[nH]cnc12)c1ccc(F)c(F)c1,inactive
20,COc1ccc(Cl)cc1NC(=O)CN(C)CC(=O)Nc1ccccc1N1CCOCC1,"inconclusive: 7.3 µM [inhibitor, partial curve, poor fit]"
21,O=C(COC(=O)c1ccc(F)cc1F)Nc1cccc(S(=O)(=O)N2CCOCC2)c1,inactive
22,CC1CCc2[nH]c3ccc(C(=O)N(C)CC(=O)Nc4ccccc4C(F)(F)F)cc3c2C1 (stereo unspecified),"inconclusive: 8.2 µM [inhibitor, partial curve, poor fit]"

# Taken from above.
# For Potency, `Cc1cc2oc3c(c(=O)c2cc1C)C(c1ccc(C(C)C)cc1)N(CCCN1CCOCC1)C3=O` (stereo unspecified) is entered as inconclusive: 16.4 µM [inhibitor, single point]
# For Potency, `COc1cccc(C(=O)Nc2ccc(NC(C)=O)cn2)c1` is entered as inconclusive: 13 µM [activator, partial curve]
# For Potency, `CC(=O)Nc1ccc(NC(=O)C(C)OC(=O)C2(c3ccc(F)cc3)CCCC2)cc1` (stereo unspecified) is entered as inconclusive: 8.2 µM [inhibitor, partial curve]
